Data: article PMC8777539
These are yes or no findings as the source states them, for the method shown. Binding seen in cells or lysates may run through a third protein. Some results given as binding are weak or reduced against the parent protein; the word gives no strength.

Chains of the proteins cited; added tags and fusions are not shown.
UniProt Q9NYD6: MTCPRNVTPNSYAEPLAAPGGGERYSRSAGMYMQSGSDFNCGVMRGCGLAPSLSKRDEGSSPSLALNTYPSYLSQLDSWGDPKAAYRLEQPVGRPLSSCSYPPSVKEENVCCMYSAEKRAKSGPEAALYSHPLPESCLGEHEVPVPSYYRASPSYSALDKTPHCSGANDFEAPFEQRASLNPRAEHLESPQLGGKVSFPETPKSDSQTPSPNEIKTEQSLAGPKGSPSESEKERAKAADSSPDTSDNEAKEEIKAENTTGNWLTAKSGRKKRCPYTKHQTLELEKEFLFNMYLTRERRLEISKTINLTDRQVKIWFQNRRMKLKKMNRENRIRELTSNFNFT

Target: T1, Slug (human (endogenous in A375 and A2058)) (UniProt O43623)
T1 sequence: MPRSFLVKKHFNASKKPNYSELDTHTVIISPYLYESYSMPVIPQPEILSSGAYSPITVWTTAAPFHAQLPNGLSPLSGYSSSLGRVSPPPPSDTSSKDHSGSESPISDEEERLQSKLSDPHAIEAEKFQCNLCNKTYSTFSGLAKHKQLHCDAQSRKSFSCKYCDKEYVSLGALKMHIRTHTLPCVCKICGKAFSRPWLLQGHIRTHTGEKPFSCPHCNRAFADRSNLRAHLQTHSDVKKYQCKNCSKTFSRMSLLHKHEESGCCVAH
Test: co-IP; RIPA lysates of HOXC10-overexpressed A375 and A2058 cells; precipitated with anti-HOXC10 or anti-Slug antibody and Protein A/G Plus-Agarose; Western blot for HOXC10 and Slug

Question: For “Homeobox C10 (HOXC10) (from UniProt Q9NYD6 1-342)”, which binding is on record?
Answer: binds
